In doi:10.1101/2020.06.18.159293:
Results are given in words; binding and its absence hold for the method and conditions named. Binding seen in cells or lysates may run through a third protein. A yes stands for co-enrichment or nearness to the bait. Other partners may have been found.

Amino acid sequences for entries named in this document (tags omitted).
UniProt Q1MSJ5: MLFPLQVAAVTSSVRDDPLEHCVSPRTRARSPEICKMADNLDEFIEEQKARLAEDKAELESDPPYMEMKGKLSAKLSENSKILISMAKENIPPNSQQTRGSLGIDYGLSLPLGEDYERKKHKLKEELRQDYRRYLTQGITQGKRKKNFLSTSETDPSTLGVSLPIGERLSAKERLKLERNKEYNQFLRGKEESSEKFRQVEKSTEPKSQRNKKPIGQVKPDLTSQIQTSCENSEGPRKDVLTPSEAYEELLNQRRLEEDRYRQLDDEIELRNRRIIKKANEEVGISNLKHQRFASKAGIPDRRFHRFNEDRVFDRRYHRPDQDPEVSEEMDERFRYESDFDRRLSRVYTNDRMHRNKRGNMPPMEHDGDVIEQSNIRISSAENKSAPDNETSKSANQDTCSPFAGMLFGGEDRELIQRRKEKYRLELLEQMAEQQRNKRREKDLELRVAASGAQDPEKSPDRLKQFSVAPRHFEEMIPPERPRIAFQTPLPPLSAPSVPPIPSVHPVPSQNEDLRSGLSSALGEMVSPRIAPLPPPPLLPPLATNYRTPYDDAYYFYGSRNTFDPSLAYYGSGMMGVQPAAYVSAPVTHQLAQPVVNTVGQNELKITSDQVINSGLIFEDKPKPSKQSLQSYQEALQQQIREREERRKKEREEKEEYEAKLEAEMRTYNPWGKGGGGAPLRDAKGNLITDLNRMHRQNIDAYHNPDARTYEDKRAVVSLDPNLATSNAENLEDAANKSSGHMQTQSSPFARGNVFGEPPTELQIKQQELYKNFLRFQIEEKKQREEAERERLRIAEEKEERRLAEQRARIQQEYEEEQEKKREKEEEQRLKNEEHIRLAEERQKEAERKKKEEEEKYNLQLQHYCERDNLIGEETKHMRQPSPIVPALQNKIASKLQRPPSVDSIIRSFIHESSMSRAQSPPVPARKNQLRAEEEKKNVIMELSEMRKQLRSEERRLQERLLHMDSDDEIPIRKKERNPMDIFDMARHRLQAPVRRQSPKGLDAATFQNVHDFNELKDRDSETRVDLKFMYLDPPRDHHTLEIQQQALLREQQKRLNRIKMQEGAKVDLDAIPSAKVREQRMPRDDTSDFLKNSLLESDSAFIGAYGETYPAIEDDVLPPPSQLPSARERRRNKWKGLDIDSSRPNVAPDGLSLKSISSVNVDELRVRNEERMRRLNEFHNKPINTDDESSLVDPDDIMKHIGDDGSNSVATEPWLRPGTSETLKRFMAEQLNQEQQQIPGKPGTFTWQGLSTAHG
UniProt O60333: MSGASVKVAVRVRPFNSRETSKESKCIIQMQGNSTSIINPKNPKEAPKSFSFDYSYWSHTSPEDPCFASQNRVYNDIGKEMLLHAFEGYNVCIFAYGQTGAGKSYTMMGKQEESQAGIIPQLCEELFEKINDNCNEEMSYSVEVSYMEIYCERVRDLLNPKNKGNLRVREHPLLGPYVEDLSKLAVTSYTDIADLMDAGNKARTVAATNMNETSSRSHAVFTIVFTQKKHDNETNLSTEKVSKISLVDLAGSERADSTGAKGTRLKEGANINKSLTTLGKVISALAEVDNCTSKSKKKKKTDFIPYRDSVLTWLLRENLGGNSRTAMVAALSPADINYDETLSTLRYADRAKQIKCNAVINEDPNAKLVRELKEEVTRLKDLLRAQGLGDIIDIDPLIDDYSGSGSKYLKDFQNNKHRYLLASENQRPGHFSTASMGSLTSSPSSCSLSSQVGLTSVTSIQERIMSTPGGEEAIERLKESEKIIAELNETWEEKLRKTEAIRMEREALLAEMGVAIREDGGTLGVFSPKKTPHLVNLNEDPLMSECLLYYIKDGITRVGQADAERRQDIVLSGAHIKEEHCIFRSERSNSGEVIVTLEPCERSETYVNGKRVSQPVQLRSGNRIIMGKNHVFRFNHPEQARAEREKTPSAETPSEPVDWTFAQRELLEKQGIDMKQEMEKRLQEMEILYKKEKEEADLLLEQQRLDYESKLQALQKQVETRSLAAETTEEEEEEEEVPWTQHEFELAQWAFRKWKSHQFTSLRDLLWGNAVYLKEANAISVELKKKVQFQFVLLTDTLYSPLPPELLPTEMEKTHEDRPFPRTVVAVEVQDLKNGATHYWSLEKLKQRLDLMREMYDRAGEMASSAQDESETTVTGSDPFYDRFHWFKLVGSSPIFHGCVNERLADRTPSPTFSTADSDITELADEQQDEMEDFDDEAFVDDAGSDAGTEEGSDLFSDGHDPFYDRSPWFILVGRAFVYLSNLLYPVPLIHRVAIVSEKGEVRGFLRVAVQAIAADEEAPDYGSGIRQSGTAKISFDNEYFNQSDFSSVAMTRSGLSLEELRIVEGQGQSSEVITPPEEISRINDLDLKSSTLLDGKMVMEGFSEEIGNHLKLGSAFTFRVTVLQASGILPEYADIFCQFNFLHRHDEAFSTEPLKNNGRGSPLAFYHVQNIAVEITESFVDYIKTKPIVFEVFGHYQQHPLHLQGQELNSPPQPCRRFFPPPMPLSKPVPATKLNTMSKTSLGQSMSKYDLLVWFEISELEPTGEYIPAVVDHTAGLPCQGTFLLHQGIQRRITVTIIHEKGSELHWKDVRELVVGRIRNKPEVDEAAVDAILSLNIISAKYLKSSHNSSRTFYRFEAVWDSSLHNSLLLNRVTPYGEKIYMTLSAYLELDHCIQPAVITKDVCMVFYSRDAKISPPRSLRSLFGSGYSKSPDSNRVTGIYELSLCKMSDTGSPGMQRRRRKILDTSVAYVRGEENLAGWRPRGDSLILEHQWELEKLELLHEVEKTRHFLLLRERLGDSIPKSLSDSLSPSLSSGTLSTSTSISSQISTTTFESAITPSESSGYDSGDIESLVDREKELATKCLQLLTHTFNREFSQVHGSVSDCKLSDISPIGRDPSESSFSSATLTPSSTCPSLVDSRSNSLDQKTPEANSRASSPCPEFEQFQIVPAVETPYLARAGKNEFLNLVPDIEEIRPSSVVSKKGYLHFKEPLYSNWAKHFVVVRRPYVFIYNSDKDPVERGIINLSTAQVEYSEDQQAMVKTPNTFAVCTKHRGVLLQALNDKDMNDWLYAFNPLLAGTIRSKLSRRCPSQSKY
UniProt O75116: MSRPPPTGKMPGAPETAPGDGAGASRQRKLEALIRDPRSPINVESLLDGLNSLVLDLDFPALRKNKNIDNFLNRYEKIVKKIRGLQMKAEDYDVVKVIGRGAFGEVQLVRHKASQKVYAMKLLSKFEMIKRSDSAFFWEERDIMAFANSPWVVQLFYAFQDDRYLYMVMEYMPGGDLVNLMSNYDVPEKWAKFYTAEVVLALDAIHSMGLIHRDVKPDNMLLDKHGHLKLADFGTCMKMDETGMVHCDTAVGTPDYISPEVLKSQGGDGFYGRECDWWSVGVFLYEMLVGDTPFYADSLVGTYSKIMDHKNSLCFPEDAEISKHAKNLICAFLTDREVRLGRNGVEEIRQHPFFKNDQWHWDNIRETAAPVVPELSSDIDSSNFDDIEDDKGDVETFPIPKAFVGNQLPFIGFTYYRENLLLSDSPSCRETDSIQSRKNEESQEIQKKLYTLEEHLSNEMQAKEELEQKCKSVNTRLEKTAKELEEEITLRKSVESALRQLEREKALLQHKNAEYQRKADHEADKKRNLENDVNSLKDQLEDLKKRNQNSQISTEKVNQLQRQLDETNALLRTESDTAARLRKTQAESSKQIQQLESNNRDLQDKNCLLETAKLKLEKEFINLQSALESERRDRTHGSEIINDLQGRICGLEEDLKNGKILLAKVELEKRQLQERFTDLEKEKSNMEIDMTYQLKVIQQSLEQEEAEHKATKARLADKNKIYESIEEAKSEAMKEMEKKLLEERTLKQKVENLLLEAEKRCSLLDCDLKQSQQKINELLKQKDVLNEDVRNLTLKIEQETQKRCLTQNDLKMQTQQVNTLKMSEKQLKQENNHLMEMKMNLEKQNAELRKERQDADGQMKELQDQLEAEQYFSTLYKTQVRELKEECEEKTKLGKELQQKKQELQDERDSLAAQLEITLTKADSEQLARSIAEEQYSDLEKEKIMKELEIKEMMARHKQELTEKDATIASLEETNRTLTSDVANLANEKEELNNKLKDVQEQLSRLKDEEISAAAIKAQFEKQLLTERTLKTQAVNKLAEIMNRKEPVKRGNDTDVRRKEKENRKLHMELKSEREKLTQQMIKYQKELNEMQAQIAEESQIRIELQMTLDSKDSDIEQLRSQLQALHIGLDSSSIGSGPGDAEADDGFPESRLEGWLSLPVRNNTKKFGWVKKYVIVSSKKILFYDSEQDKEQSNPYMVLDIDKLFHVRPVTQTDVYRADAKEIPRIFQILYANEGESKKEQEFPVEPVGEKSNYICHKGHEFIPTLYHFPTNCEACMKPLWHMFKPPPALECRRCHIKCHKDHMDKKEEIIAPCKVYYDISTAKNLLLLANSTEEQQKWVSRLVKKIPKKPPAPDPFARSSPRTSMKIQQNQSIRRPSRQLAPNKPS
UniProt Q5T5Y3: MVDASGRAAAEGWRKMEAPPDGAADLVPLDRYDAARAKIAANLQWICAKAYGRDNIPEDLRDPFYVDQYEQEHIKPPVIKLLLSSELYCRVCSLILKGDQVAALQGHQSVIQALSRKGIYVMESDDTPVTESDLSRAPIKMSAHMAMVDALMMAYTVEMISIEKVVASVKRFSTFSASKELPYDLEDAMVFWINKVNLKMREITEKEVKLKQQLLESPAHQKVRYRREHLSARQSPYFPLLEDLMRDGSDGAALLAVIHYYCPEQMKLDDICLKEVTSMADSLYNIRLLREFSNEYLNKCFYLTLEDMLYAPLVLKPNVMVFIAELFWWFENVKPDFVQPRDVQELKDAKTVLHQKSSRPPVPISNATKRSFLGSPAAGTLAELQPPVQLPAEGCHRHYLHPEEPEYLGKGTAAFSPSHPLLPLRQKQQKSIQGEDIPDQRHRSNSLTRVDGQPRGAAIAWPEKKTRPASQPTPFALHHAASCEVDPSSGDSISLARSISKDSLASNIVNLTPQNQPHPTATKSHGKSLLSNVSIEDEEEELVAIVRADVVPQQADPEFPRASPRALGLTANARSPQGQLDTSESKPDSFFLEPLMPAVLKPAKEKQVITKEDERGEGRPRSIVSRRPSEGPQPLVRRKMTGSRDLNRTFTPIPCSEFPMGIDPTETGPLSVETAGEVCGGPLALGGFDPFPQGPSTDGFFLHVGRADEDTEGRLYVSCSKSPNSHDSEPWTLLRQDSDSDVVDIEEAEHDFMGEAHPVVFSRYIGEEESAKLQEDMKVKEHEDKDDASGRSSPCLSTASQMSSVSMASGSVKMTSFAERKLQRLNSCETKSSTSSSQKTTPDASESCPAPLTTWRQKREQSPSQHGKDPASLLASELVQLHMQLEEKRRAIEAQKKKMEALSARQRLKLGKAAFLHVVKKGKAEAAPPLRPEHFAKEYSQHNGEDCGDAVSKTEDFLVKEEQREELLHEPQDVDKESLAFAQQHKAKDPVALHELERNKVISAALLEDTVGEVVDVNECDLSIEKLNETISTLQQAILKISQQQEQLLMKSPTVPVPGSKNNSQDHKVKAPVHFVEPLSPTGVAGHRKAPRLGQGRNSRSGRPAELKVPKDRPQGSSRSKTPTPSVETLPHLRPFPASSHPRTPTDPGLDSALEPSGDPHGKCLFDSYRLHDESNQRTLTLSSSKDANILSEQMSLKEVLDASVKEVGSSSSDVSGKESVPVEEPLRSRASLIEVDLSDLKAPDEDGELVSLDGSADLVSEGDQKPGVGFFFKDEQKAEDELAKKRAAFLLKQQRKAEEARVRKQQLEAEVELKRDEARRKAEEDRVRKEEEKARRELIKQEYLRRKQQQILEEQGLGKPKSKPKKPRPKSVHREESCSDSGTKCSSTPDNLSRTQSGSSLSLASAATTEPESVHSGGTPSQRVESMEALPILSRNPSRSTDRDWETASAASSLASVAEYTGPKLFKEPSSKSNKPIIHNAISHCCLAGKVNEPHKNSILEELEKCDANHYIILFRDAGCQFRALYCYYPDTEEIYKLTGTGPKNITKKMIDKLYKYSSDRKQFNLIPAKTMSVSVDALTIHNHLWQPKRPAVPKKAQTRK

T1: ULK4 R39 variant (BioID bait) (human) (UniProt Q96C45)
T1 sequence: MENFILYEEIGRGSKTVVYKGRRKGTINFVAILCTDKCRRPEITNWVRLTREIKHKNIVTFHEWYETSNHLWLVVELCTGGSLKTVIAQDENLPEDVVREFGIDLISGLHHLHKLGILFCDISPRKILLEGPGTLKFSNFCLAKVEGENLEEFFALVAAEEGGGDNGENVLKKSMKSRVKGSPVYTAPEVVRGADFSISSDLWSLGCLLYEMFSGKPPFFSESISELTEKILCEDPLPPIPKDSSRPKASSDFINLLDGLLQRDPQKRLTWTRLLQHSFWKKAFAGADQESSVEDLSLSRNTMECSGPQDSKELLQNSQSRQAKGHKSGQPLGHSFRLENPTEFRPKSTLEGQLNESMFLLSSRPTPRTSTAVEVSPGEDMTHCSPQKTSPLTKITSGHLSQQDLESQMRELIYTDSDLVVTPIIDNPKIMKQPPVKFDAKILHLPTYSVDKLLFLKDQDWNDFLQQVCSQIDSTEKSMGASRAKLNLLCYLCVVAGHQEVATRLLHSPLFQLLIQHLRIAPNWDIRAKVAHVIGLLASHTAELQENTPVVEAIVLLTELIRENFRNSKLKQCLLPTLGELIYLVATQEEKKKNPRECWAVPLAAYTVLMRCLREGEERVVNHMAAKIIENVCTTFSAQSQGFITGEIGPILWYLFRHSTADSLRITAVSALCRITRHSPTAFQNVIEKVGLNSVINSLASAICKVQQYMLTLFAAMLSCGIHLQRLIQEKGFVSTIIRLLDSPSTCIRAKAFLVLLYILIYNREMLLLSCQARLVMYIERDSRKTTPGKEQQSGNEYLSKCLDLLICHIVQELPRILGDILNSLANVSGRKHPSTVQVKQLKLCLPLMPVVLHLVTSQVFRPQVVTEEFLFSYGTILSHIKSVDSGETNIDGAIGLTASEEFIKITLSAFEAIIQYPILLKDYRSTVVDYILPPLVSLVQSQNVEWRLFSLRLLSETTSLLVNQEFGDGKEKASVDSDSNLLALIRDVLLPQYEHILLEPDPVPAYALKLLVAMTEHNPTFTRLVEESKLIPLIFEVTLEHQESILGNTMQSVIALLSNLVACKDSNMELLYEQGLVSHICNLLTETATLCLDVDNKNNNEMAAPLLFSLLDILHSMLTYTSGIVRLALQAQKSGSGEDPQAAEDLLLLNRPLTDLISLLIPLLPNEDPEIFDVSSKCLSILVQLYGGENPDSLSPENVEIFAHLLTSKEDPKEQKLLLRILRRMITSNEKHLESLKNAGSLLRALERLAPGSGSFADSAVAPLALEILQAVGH

B1: KIF3B (protein, UniProt O15066 1-747)
chain: MSKLKSSESVRVVVRCRPMNGKEKAASYDKVVDVDVKLGQVSVKNPKGTAHEMPKTFTFDAVYDWNAKQFELYDETFRPLVDSVLQGFNGTIFAYGQTGTGKTYTMEGIRGDPEKRGVIPNSFDHIFTHISRSQNQQYLVRASYLEIYQEEIRDLLSKDQTKRLELKERPDTGVYVKDLSSFVTKSVKEIEHVMNVGNQNRSVGATNMNEHSSRSHAIFVITIECSEVGLDGENHIRVGKLNLVDLAGSERQAKTGAQGERLKEATKINLSLSALGNVISALVDGKSTHIPYRDSKLTRLLQDSLGGNAKTVMVANVGPASYNVEETLTTLRYANRAKNIKNKPRVNEDPKDALLREFQEEIARLKAQLEKRSIGRRKRREKRREGGGSGGGGEEEEEEGEEGEEEGDDKDDYWREQQEKLEIEKRAIVEDHSLVAEEKMRLLKEKEKKMEDLRREKDAAEMLGAKIKAMESKLLVGGKNIVDHTNEQQKILEQKRQEIAEQKRREREIQQQMESRDEETLELKETYSSLQQEVDIKTKKLKKLFSKLQAVKAEIHDLQEEHIKERQELEQTQNELTRELKLKHLIIENFIPLEEKSKIMNRAFFDEEEDHWKLHPITRLENQQMMKRPVSAVGYKRPLSQHARMSMMIRPEARYRAENIVLLELDMPSRTTRDYEGPAIAPKVQAALDAALQDEDEIQVDASSFESTANKKSKARPKSGRKSGSSSSSSGTPASQLYPQSRGLVPK
B2: HAUS2 (protein, UniProt Q9NVX0 1-235)
chain: MAAANPWDPASAPNGAGLVLGHFIASGMVNQEMLNMSKKTVSCFVNFTRLQQITNIQAEIYQKNLEIELLKLEKDTADVVHPFFLAQKCHTLQSMNNHLEAVLKEKRSLRQRLLKPMCQENLPIEAVYHRYMVHLLELAVTFIERLETHLETIRNIPHLAANLKKMNQALAKMDILVTETEELAENILKWRKQQNEVSSCIPKILAEESYLYKHDIIMPPLPFTSKVHVQTINAK
B3: HAUS8 (HEC1/NDC80-Interacting Centrosome-Associated Protein) (protein, UniProt Q9BT25 1-410)
chain: MADSSGRGAGKPATGPTNSSSAKKKDKRVQGGRVIESRYLQYEKKTTQKAPAGDGSQTRGKMSEGGRKSSLLQKSKADSSGVGKGDLQSTLLEGHGTAPPDLDLSAINDKSIVKKTPQLAKTISKKPESTSFSAPRKKSPDLSEAMEMMESQTLLLTLLSVKMENNLAEFERRAEKNLLIMCKEKEKLQKKAHELKRRLLLSQRKRELADVLDAQIEMLSPFEAVATRFKEQYRTFATALDTTRHELPVRSIHLEGDGQQLLDALQHELVTTQRLLGELDVGDSEENVQVLDLLSELKDVTAKKDLELRRSFAQVLELSAEASKEAALANQEVWEETQGMAPPSRWYFNQDSACRESGGAPKNTPLSEDDNPGASSAPAQATFISPSEDFSSSSQAEVPPSLSRSGRDLS
B4: OFD1 (OFD1 centriole and centriolar satellite protein) (protein, UniProt O75665 1-1012)
chain: MMAQSNMFTVADVLSQDELRKKLYQTFKDRGILDTLKTQLRNQLIHELMHPVLSGELQPRSISVEGSSLLIGASNSLVADHLQRCGYEYSLSVFFPESGLAKEKVFTMQDLLQLIKINPTSSLYKSLVSGSDKENQKGFLMHFLKELAEYHQAKESCNMETQTSSTFNRDSLAEKLQLIDDQFADAYPQRIKFESLEIKLNEYKREIEEQLRAEMCQKLKFFKDTEIAKIKMEAKKKYEKELTMFQNDFEKACQAKSEALVLREKSTLERIHKHQEIETKEIYAQRQLLLKDMDLLRGREAELKQRVEAFELNQKLQEEKHKSITEALRRQEQNIKSFEETYDRKLKNELLKYQLELKDDYIIRTNRLIEDERKNKEKAVHLQEELIAINSKKEELNQSVNRVKELELELESVKAQSLAITKQNHMLNEKVKEMSDYSLLKEEKLELLAQNKLLKQQLEESRNENLRLLNRLAQPAPELAVFQKELRKAEKAIVVEHEEFESCRQALHKQLQDEIEHSAQLKAQILGYKASVKSLTTQVADLKLQLKQTQTALENEVYCNPKQSVIDRSVNGLINGNVVPCNGEISGDFLNNPFKQENVLARMVASRITNYPTAWVEGSSPDSDLEFVANTKARVKELQQEAERLEKAFRSYHRRVIKNSAKSPLAAKSPPSLHLLEAFKNITSSSPERHIFGEDRVVSEQPQVGTLEERNDVVEALTGSAASRLRGGTSSRRLSSTPLPKAKRSLESEMYLEGLGRSHIASPSPCPDRMPLPSPTESRHSLSIPPVSSPPEQKVGLYRRQTELQDKSEFSDVDKLAFKDNEEFESSFESAGNMPRQLEMGGLSPAGDMSHVDAAAAAVPLSYQHPSVDQKQIEEQKEEEKIREQQVKERRQREERRQSNLQEVLERERRELEKLYQERKMIEESLKIKIKKELEMENELEMSNQEIKDKSAHSENPLEKYMKIIQQEQDQESADKSSKKMVQEGSLVDTLQSSDKVESLTGFSHEELDDSW

What was measured:
Assay in all cases: proximity labelling
[1] = target: N- and C-terminally FlagBirA* tagged full length ULK4 (BioID baits, hits pooled) (human) (UniProt Q96C45)
[2] = target: T1, ULK4 R39 variant (BioID bait) (human)
[3] = target: C-terminally FLAG-tagged full-length ULK4 (ULK4-BirA*Flag) (human) (UniProt Q96C45)
[4] = target: N-terminally FLAG-tagged ULK4 (FlagBirA*-ULK4) (human) (UniProt Q96C45)

Row | Molecule | binding [1] | binding [2] | binding [3] | binding [4]
1 | CSPP1 (Centrosome and Spindle Pole Associated Protein 1) (from UniProt Q1MSJ5 1-1256) | binds | binds | – | –
2 | KIF1B (from UniProt O60333 1-1816) | binds | binds | – | –
3 | KIFAP3 (from UniProt Q92845 1-792) | binds | binds | – | –
4 | Microtubule Associated Serine/Threonine Kinase 2 MAST2 (from UniProt Q6P0Q8 1-1798) | binds | binds | – | –
5 | Rho associated coiled-coil containing protein kinase 2 (ROCK2) (from UniProt O75116 1-1388) | binds | binds | binds | binds
6 | STK36 (from UniProt Q9NRP7 1-1315) | binds | binds | – | –
7 | calmodulin regulated spectrin associated protein 1 (CAMSAP1) (from UniProt Q5T5Y3 1-1602) | binds | binds | binds | binds
8 | B1 | binds | binds | – | –
9 | B2 | binds | binds | – | –
10 | B3 | binds | binds | – | –
11 | B4 | binds | binds | – | –
